Reference: patent US20080241081A1, “AMIDE COMPOUND OR SALT THEREOF, AND BIOFILM REMOVER CONTAINING THE SAME” (priority 2006, published 2008)
At least one compound was matched to its structure with a doubt left.

System: biofilm formed by Pseudomonas aeruginosa (gfp expression PAO1-strain)
Experiment: Evaluation test for removing biofilms formed by Pseudomonas aeruginosa (flow cell system, fluorescence confocal microscope)
Format: cell-based
Conditions: test liquid 100 μM compound; for state of deposited biofilm observed over time: flow 200 μL per minute, observed after 3, 4, 5, 6, 7 and 10 days, compared with DMSO control test liquid; for biofilm removal effect (conclusion): flow cell system, up to 10 days
Description: Each of the amide compounds (Compound 1a-1, 1a-2, 1b-1 and 1c-1) produced in Production Examples 1 to 4 was evaluated for its biofilm removal effect, using the flow cell system shown in FIG. 1.
A culture medium bottle (1), a peristaltic pump (2), a glass cell (4) and a waste fluid bottle (5) are connected via a silicon tube (6) so that a culture medium (9) is supplied to the glass cell from the culture medium bottle (1) using the peristaltic pump (2). The system includes an air removal section (3) between the peristaltic pump (2) and a turncock (7a), for removing the entrained air. All tools in the flow cell system are sterilized using gamma-rays or an autoclave.
As specifically described later, the effect for removing biofilms is examined in the following manner. Bacteria are cultured in a glass cell (4) to grow a biofilm on the inner wall of the cell, and a test liquid containing one of the amide compounds is applied to the biofilm. Then the condition of the biofilm is observed to evaluate the biofilm-removing effect of the compound using a fluorescence confocal microscope (Leica TCS SP2: product of Leica).
The bacteria was prepared by inserting a pTdk-LVAgfp plasmid into a Pseudomonas aeruginosa PAO1-strain using the electroportion method so that the Pseudomonas aeruginosa PAO1-strain is transformed to express Green Fluorescent Protein (hereinafter referred to as “gfp expression PAO1-strain”) (see Teresa R. et al., Applied and Environmental Microbiology, April 2001, p. 1865-1873).
A 30 mM glucose-containing FAB culture medium was used for preincubation, and a 0.3 mM glucose-containing FAB culture medium was used for main cultivation.
The glucose-containing FAB culture medium was prepared by adding 200 μg/mL of carbenicillin to an aqueous solution containing 30 mM glucose or 0.3 mM glucose, 15 mM ammonium sulfate, 33.7 mM disodium hydrogenphosphate, 22.1 mM dipotassium hydrogenphosphate, 51.7 mM sodium chloride, 0.47 mM magnesium chloride, 0.08 mM calcium chloride and the following 0.1% trace metal solution.
An aqueous solution containing 1.16 mM calcium sulfate dihydrate, 0.72 mM iron sulfate heptahydrate, 0.08 mM manganous sulfate monohydrate, 0.08 mM copper sulfate pentahydrate, 0.07 mM zinc sulfate heptahydrate, 0.04 mM cobalt sulfate heptahydrate, 0.04 mM […], and 0.08 mM boric acid.
A gfp expression PAO1-strain was inoculated in a 30 mM glucose-containing FAB culture medium, and was subjected to shake culture at 37° C. in an isothermal tank overnight. The obtained overnight culture liquid was diluted by a 30 mM glucose-containing FAB culture medium to OD590=0.1. […]

| SMILES | state of deposited biofilm observed over time | biofilm removal effect (conclusion) |
| --- | --- | --- |
| CCCCCCCCCC(=O)CC(=O)Nc1ccc(O)cc1C [Compound 1b-1, N-(4-hydroxy-2-methylphenyl)-3-oxododecanoyl amide] | gradual disappearance of the deposited biofilm with time was observed | effective for removing deposited biofilms |
| CCCC(=O)CC(=O)Nc1ncccc1O [Compound 1c-1, N-(3-hydroxypyridine-2-yl)-3-oxohexanoyl amide] | gradual disappearance of the deposited biofilm with time was observed | effective for removing deposited biofilms |
